The list shows a part of the results, in another mix than the full data.

Protein sequences, listed by entry. Tags and fused reporters are not part of them. Lines headed by an entry give the natural chain unless they say otherwise; changes in a name come on top.
UniProt P13010: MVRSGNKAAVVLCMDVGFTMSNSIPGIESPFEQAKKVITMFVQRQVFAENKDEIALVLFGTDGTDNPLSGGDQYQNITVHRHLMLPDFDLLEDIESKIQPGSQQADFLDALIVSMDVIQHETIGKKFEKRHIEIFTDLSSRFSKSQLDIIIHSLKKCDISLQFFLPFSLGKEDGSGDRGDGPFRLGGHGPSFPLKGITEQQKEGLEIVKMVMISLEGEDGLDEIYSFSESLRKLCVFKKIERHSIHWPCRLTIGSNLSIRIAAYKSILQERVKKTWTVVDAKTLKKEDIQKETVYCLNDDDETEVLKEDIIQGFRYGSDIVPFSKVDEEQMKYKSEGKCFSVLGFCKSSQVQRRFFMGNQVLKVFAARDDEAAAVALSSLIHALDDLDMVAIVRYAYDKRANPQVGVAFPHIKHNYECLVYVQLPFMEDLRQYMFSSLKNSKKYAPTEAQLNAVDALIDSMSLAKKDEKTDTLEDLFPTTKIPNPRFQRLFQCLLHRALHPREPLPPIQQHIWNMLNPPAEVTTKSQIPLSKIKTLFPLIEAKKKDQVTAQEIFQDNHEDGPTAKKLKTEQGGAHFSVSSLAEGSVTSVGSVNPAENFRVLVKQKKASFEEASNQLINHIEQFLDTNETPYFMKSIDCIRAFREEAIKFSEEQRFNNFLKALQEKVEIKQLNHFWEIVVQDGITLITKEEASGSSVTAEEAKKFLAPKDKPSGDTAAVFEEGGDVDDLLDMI
UniProt P16615: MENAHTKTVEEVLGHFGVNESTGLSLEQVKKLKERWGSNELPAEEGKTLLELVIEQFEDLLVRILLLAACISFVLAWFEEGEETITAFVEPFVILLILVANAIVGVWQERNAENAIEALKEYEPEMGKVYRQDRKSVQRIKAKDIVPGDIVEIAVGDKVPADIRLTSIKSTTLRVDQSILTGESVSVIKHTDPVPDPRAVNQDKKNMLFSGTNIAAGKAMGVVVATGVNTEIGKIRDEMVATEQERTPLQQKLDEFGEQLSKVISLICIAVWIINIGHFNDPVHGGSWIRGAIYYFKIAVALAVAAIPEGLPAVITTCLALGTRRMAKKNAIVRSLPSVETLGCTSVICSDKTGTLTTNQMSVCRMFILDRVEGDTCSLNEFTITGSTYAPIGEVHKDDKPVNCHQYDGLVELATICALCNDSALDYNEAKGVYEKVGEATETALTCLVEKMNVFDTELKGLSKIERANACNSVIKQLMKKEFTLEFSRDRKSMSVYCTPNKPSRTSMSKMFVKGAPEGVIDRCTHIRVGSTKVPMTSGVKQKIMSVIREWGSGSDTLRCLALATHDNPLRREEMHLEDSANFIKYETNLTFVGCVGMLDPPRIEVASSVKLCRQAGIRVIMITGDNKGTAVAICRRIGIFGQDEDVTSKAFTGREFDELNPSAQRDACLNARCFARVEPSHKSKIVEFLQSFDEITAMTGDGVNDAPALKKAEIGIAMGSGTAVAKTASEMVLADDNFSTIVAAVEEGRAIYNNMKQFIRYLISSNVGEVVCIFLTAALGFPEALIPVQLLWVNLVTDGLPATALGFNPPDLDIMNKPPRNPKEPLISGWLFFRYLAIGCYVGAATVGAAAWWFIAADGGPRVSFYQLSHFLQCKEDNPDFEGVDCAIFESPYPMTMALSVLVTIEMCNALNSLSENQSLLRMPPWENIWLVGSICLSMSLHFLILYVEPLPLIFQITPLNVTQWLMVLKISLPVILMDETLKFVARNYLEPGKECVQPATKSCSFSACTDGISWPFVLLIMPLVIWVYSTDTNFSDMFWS
UniProt P07814: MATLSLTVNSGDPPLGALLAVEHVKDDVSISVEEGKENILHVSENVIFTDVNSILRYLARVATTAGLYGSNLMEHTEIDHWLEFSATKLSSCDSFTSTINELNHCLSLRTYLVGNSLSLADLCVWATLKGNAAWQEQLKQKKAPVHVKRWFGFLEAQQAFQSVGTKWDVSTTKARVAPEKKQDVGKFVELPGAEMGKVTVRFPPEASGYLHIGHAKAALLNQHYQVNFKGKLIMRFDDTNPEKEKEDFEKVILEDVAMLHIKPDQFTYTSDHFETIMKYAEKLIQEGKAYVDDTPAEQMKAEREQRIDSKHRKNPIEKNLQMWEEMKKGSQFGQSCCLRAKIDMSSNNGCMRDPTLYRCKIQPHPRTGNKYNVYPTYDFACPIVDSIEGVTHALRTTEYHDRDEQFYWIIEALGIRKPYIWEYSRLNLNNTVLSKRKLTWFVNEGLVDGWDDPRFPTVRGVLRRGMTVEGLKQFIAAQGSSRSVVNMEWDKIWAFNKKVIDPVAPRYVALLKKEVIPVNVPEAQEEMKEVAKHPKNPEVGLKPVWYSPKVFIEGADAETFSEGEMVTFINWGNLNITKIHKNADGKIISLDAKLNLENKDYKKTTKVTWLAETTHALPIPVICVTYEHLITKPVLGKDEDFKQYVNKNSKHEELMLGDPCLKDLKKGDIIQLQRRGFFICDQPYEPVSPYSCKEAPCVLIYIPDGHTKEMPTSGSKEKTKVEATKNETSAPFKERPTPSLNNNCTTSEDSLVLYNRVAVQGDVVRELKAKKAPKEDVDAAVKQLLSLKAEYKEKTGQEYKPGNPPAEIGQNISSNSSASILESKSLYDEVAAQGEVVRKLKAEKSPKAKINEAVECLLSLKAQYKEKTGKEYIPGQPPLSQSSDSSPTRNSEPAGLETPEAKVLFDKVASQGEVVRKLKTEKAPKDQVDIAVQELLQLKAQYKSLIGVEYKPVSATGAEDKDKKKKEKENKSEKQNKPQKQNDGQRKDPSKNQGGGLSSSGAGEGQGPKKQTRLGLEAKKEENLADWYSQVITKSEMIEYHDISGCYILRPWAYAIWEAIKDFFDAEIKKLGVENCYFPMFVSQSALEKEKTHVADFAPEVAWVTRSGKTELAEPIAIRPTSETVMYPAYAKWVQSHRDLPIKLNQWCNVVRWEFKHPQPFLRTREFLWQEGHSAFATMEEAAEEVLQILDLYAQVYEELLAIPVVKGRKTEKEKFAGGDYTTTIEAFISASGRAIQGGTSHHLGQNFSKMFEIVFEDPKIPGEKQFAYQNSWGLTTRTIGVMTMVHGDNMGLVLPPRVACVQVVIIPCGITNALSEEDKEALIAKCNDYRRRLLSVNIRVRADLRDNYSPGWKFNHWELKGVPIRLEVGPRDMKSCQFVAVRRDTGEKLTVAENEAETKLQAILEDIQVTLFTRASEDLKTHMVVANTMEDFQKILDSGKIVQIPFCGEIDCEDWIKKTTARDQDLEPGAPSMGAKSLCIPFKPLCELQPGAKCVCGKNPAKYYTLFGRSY
UniProt P14866: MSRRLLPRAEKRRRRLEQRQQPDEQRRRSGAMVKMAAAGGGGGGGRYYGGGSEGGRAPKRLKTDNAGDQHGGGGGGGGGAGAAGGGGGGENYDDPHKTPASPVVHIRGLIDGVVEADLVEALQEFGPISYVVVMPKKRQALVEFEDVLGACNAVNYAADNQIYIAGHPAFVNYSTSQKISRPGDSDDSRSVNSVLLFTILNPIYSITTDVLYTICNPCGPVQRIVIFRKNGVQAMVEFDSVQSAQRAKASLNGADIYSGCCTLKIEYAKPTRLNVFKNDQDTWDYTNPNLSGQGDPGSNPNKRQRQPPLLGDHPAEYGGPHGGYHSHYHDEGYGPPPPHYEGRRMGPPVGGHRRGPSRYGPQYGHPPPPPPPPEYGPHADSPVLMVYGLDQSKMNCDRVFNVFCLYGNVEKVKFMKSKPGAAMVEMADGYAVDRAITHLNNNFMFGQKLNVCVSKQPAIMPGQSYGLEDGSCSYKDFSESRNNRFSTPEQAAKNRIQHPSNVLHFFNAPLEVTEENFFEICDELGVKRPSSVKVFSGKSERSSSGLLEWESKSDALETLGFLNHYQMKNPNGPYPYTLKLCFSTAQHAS
UniProt P17706: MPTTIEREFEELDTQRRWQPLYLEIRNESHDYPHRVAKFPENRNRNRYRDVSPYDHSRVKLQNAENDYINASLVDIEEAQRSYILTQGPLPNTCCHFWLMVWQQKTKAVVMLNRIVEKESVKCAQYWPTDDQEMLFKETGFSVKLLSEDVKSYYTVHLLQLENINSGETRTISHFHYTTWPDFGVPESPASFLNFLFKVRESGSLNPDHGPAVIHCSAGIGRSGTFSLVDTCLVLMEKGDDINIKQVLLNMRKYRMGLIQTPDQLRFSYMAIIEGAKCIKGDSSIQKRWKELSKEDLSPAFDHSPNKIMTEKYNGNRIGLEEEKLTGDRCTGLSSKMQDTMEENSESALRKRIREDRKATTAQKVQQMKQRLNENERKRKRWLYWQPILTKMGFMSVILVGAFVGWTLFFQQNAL
UniProt P0DMV8, whole entry, looked up: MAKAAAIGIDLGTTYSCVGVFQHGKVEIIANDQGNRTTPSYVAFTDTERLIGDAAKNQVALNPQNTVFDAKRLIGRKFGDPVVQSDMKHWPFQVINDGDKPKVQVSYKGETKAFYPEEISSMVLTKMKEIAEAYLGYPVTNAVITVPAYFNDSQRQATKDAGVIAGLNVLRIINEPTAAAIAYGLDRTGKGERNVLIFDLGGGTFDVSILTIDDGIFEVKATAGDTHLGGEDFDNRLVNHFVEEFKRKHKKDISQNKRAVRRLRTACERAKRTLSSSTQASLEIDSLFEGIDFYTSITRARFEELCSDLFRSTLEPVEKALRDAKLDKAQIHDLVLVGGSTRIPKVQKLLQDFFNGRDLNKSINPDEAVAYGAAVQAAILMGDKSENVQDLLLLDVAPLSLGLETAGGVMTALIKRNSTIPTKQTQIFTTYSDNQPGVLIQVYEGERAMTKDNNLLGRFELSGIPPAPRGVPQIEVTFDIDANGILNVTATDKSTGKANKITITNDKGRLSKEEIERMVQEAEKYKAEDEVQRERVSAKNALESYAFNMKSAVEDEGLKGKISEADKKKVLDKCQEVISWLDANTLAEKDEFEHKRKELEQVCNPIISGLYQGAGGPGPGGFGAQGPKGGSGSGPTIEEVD
UniProt P09234, whole entry, looked up: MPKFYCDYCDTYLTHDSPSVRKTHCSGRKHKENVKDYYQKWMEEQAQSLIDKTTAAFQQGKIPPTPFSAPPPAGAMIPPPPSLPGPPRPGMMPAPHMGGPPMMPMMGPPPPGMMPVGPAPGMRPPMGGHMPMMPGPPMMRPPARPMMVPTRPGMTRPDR
UniProt P11586, whole entry, looked up: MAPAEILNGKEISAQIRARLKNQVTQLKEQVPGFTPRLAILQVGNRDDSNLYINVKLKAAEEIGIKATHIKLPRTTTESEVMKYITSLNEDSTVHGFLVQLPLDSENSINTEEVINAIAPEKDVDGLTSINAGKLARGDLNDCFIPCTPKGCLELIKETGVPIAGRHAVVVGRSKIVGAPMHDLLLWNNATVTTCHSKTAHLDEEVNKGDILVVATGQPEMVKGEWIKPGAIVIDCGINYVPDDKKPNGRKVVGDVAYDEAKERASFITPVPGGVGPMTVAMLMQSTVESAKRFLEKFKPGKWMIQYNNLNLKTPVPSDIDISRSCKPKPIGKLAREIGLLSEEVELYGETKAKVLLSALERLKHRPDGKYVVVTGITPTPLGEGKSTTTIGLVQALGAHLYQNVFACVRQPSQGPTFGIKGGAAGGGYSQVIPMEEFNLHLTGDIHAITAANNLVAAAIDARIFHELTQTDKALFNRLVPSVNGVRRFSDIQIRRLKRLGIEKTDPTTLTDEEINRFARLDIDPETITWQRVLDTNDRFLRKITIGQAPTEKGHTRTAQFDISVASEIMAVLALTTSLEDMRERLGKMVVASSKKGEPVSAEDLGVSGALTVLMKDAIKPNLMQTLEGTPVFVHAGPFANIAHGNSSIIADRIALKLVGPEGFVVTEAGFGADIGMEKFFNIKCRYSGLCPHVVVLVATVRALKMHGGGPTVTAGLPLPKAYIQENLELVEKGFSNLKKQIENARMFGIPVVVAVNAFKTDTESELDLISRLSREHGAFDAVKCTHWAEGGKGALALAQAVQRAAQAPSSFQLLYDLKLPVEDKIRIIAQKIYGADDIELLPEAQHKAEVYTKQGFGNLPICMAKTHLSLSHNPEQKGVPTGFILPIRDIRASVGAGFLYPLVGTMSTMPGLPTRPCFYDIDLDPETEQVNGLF
UniProt P14618, whole entry, looked up: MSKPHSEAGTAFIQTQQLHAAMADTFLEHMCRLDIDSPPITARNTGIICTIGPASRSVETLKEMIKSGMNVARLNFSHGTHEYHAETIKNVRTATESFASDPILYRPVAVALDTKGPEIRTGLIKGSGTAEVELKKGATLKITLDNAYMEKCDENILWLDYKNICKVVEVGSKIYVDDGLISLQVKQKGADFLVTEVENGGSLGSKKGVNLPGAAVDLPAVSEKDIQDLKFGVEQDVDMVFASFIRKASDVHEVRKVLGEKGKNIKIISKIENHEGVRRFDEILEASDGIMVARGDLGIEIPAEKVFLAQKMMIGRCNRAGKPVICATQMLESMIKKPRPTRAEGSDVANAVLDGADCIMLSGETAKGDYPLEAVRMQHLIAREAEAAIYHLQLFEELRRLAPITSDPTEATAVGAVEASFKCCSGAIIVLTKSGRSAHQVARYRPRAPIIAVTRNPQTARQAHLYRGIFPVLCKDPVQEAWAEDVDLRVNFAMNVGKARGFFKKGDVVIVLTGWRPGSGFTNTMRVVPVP

Compound in the experiment: COC(=O)C#Cc1ccccc1 [methyl 3-phenylpropiolate]
As to the kind of experiment: log2 ratio of iodoacetamide-alkyne labeling of the cysteine site, DMSO over compound (competition); higher = stronger covalent engagement of the cysteine by the compound, active = 1 or more. To be noted: 500 µM; treatment time 1 h; system: HEK293T cell lysate. An outline of the steps: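 Three replicates, each with duplicate channels, were prepared from HEK293T lysate (2 mg/mL) treated with vehicle or electrophile at 500 µM for 1 h at ambient temperature. Iodoacetamide alkyne was then applied for 1 h, and samples were clicked to sCIP-TMT reagents, pooled, trypsin-digested overnight at 37 °C, enriched on streptavidin, acid-eluted and analysed on Orbitrap Eclipse LC-MS/MS with FAIMS, with FragPipe quantification. The log2 competition ratio per cysteine is the mean control-channel divided by the mean compound-channel reporter intensity. Cysteines quantified in only one replicate were left out.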
With PPP3CB C477 (UniProt P16298), the “log2 ratio of iodoacetamide-alkyne labeling” value (“log2 ratio” below) was inactive: 0.844.

For the target XRCC5 C157 (UniProt P13010), the “log2 ratio” value is inactive: 0.161.

Turning to EEF2 C369 (UniProt P13639), the “log2 ratio” value is inactive: 0.24.

In the case of ATP2A2 C447 (UniProt P16615), the “log2 ratio” value was inactive: 0.163.

As to EPRS C697 (UniProt P07814), the “log2 ratio” value was inactive: 0.0971.

HNRNPL C452 (UniProt P14866): the “log2 ratio” value is inactive: 0.0699.

In the case of PCNA C62 (UniProt P12004), the “log2 ratio” value was inactive: 0.0598.

As for RNH1 C12 (UniProt P13489), the “log2 ratio” value was inactive: 0.147.

Turning to MTHFD2 C166 (UniProt P13995), the “log2 ratio” value is inactive: 0.25.

As for EEF2 C536 (UniProt P13639), the “log2 ratio” value is inactive: -0.284.

Consider IMPDH2 C331 (UniProt P12268), for which the “log2 ratio” value was inactive: 0.465.

PTPN2 C330 (UniProt P17706): the “log2 ratio” value is inactive: 0.608.

Regarding ACTN1 C480 (UniProt P12814), the “log2 ratio” value was inactive: -0.697.

In the case of PRKCSH C500 (UniProt P14314), the “log2 ratio” value is inactive: 0.513.

Turning to CAPN2 C341 (UniProt P17655), the “log2 ratio” value was inactive: 0.0257.

As to CKMT1A C76 (UniProt P12532), the “log2 ratio” value was inactive: -0.206.

In the case of HSP90AA1 C420 (UniProt P07900), the “log2 ratio” value is inactive: -0.4.

For HSPA8 C17 (UniProt P11142), the “log2 ratio” value was inactive: -0.158.

For the target ESD C243 (UniProt P10768), the “log2 ratio” value is inactive: 0.239.

PDHB C306 (UniProt P11177): the “log2 ratio” value is inactive: -0.122.

Regarding PARP1 C162 (UniProt P09874), the “log2 ratio” value was inactive: 0.206.

UniProt P0DMV8_C574: the “log2 ratio” value is inactive: 0.492.

HNRNPL C521 (UniProt P14866): the “log2 ratio” value was inactive: -0.206.

As for EEF2 C41 (UniProt P13639), the “log2 ratio” value is inactive: 0.173.

Regarding SNRPC C9 (UniProt P09234), the “log2 ratio” value is inactive: 0.00575.

Turning to GSPT1 C261 (UniProt P15170), the “log2 ratio” value is inactive: 0.384.

On to MTHFD1 C195 (UniProt P11586), for which the “log2 ratio” value was inactive: -0.0967.

With MTHFD1 C152 (UniProt P11586), the “log2 ratio” value was inactive: -0.0756.

Consider EEF2 C567 (UniProt P13639), for which the “log2 ratio” value is inactive: 0.0358.

Take UniProt P14618_C31: the “log2 ratio” value was inactive: -0.0751.

In the case of CAPN2 C640 (UniProt P17655), the “log2 ratio” value was inactive: 0.517.

As for PFKM C709 (UniProt P08237), the “log2 ratio” value is inactive: 0.13.

Consider ATP2A2 C560 (UniProt P16615), for which the “log2 ratio” value is inactive: -0.00934.

Turning to U2AF1L5 C163 (UniProt P0DN76), the “log2 ratio” value is inactive: 0.181.

Consider RNH1 C85 (UniProt P13489), for which the “log2 ratio” value was inactive: 0.0022.

Take EEF2 C728 (UniProt P13639): the “log2 ratio” value is inactive: 0.00624.

Consider CDK4 C135 (UniProt P11802), for which the “log2 ratio” value is inactive: 0.117.

The values are drawn from the supplement of paper PMC11006884.
